These are yes or no findings as the source states them, for the method shown. In cells and extracts the contact can be indirect. Some results given as binding are weak or reduced against the parent protein; the word gives no strength.
Target: BAP-tagged CHIKV nsP3 (chikungunya virus) (UniProt Q8JUX6)
Test: pull-down

The chains behind the UniProt entries cited, without tags or fusion partners. Residues count along the entry.
UniProt Q8JUX6, residues 1334-1863: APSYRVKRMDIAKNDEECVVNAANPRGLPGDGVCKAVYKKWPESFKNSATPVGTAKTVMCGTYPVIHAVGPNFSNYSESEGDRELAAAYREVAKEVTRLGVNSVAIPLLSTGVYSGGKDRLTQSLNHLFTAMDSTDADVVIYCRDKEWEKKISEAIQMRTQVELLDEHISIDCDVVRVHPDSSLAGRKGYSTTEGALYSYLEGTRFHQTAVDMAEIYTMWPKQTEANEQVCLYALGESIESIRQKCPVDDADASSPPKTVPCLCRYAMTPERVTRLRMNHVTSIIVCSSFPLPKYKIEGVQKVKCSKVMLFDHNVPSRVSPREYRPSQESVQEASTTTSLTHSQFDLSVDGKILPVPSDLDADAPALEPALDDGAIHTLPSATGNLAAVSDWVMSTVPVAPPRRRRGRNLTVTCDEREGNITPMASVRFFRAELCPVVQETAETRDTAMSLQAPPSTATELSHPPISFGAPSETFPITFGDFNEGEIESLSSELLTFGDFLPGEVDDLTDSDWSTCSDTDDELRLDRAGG
UniProt Q13283: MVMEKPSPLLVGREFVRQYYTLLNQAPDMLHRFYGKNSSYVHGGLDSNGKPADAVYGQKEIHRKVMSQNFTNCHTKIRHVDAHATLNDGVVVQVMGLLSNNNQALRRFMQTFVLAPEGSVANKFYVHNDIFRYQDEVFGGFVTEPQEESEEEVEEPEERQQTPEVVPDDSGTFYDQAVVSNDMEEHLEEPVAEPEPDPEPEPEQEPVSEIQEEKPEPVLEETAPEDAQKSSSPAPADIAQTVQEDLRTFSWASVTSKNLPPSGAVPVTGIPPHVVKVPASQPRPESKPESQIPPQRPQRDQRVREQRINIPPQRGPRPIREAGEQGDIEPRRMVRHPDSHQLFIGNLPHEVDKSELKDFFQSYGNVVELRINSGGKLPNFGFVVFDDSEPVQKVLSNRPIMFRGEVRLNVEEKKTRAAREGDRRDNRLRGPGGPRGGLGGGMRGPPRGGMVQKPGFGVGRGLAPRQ

GFP-G3BP1 WT (from UniProt Q13283 1-466)
binding: binds

Reference: article PMC6594655
